Tested on: acetic acid-induced writhing in mice
Assay: mouse writhing assay (acetic acid-induced writhing)
Assay type: in vivo

With CN1CC[C@]23c4c5ccc(O)c4O[C@H]2[C@@H](O)C=C[C@H]3[C@H]1C5 [morphine] as the molecule, how does the “analgesic effect at 0.1 mg/kg” value (morphine 0.1 mg/kg) read?
Its value is “non-analgesic”.

And the “analgesic effect at 0.3 mg/kg” value (morphine 0.3 mg/kg, 30 minutes prior)?
Its value is “effective”.

And the “analgesic effect at 1.0 mg/kg” value (morphine 1.0 mg/kg, 30 minutes prior (P<0.01))?
Its value is “effective”.

What about the “analgesic effect at 3.0 mg/kg” value (morphine 3.0 mg/kg, 30 minutes prior (P<0.001)) of the same molecule?
Its value is “effective”.

What about the “lowest effective analgesic dose” value (morphine intraperitoneal 30 minutes prior to acetic acid (P<0.05)) of the same molecule?
Its value is 0.3 mg/kg.

From patent US5677279A, “Methods and compositions for treating pain with amylin or agonists thereof” (Amylin Pharmaceuticals, Inc., priority 1996, dated 1997)
